Results deposited as PubChem BioAssay AID1259283 (Sanger Institute, 2017)
Shown is an unselected part of 794 reagents. 14 of them (1.8%) were called active. 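Calls reflect only viability loss without drug; drug synergy does not enter the call.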 Unmarked entries are inactive. Further read-outs or replicates are left out here. Reagent sequences are not shown. Not given: the amount of reagent, the time to read-out.

Aim: 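Kinases whose silencing adds to targeted drugs in killing colon cancer cells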 (primary screen)
System: HT115 colorectal cancer cells
Reagent: siRNA pool against human genes
Conditions: anchor drug given one day after siRNA: BYL719 at 1 µM, cetuximab at 5 µg/ml, trametinib at 10 nM, or DMSO vehicle alone
Detection: 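Viability normalised to non-targeting pool #2 wells and averaged over replicates, robust z-score against control wells, and a synergy score for each of three drugs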
Scale: robust z-score, knock-down alone: higher = more viable cells after knock-down
Active means: 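a gene counts as essential when its robust z-score with knock-down alone is below -3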
Meaning of the calls: active = essential (z below -3, no drug); inactive = no change without drug

gene knocked down | robust z-score, knock-down alone
FN1 (fibronectin 1) | 0.789
ITSN1 (intersectin 1) | 0.0012
ROR2 (ROR family WNT receptor 2) | 0.789
MAPK14 (mitogen-activated protein kinase 14) | 0.789
CLK1 (CDC like kinase 1) | 0.281
BRSK1 (BR serine/threonine kinase 1) | -0.0241
HIPK2 (homeodomain interacting protein kinase 2) | 0.293
PDGFRL (platelet derived growth factor receptor like) | 0.161
AXL (AXL receptor tyrosine kinase) | 0.706
ZC3H11A (zinc finger CCCH-type containing 11A) | 0.789
PAK3 (p21 (RAC1) activated kinase 3) | 0.153
KIT (KIT proto-oncogene, receptor tyrosine kinase) | 0.789
CDKL3 (cyclin dependent kinase like 3) | -0.246
RIOK2 (RIO kinase 2) | 0.789
CAMK1G (calcium/calmodulin dependent protein kinase IG) | 0.789
SPHK2 (sphingosine kinase 2) | 0.135
PRKCE (protein kinase C epsilon) | -0.841
DMPK (DM1 protein kinase) | 0.789
TAOK1 (TAO kinase 1) | -0.0924
DCLK3 (doublecortin like kinase 3) | 0.789
TGFBR1 (transforming growth factor beta receptor 1) | 0.789
MAP3K3 (mitogen-activated protein kinase kinase kinase 3) | -0.334
ADCK1 (aarF domain containing kinase 1) | 0.634
ADCK2 (aarF domain containing kinase 2) | -0.0892
PIK3CG | 0.789
CDK11A (cyclin dependent kinase 11A) | -0.413
NTRK1 (neurotrophic receptor tyrosine kinase 1) | -2.1
CDK5R2 (cyclin dependent kinase 5 regulatory subunit 2) | -0.265
FN3K (fructosamine 3 kinase) | 0.147
PRKCH (protein kinase C eta) | 0.0255
CIT (citron rho-interacting serine/threonine kinase) | 0.108
EPHA1 (EPH receptor A1) | 0.752
CSNK1G1 (casein kinase 1 gamma 1) | 0.789
ITK (IL2 inducible T cell kinase) | 0.384
PDIK1L (PDLIM1 interacting kinase 1 like) | 0.756
STK33 (serine/threonine kinase 33) | 0.262
VRK2 (VRK serine/threonine kinase 2) | 0.299
MERTK (MER proto-oncogene, tyrosine kinase) | 0.28
INSR (insulin receptor) | 0.789
BMPR2 (bone morphogenetic protein receptor type 2) | -0.223
RFK (riboflavin kinase) | 0.789
PBK (PDZ binding kinase) | 0.423
ERBB4 (erb-b2 receptor tyrosine kinase 4) | -0.584
STAG2 (STAG2 cohesin complex component) | 0.0207
CSNK1A1L (casein kinase 1 alpha 1 like) | 0.789
IKBKE (inhibitor of nuclear factor kappa B kinase subunit epsilon) | -1.68
AK5 (adenylate kinase 5) | -1.1
HUS1 (HUS1 checkpoint clamp component) | -0.976
ELF3 (E74 like ETS transcription factor 3) | -2.41
CDKL1 (cyclin dependent kinase like 1) | 0.789

Quoted from above, 5 entries:
gene knocked down | robust z-score, knock-down alone
PDIK1L (PDLIM1 interacting kinase 1 like) | 0.756
STK33 (serine/threonine kinase 33) | 0.262
VRK2 (VRK serine/threonine kinase 2) | 0.299
MERTK (MER proto-oncogene, tyrosine kinase) | 0.28
INSR (insulin receptor) | 0.789
